# Screen size: about 31,000 sequences; about 1,400 (4.5%) were called active.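 The calls were made as follows: active = median seed-adjusted z-score above 1 or below -1; inactive = the rest.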 This is one part of the list.
# Assay: Novel Modifiers of Survival Motor Neuron (SMN) Protein: Gene Identification via Genome-wide siRNA Screen;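 also: luminescence tracks full-length SMN protein made from the SMN2 reporter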
# Settings: HEK293T SMN2-luciferase reporter, siRNA knockdown, 72 h; actives lie on both sides
# How it was run: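 Steps: spot 1 pmol siRNA, add Lipofectamine RNAiMax in serum-free DMEM, seed HEK293T SMN2–luciferase reporter cells; incubate 72 h at 37 °C; add ONE-Glo; normalize luminescence to control siRNA, log10, MAD. Candidates: |MAD| > 1.0.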
row,Sequence,median seed-adjusted z-score
1,CGGUCUACAUGAUCAAAUATT against FZD2,inactive: -0.0134
2,GAGUGGUAAUGGAAGUGAATT against PHF14,inactive: 0.354
3,GCUUGGAAAGGGUGCCUUUTT against HSFX1,inactive: 0.0575
4,CCUCCAUACGAGUCAAUCATT against LATS1,inactive: 0
5,ACAUCUAUAGAGACACUUUTT against SLC6A7,inactive: 0.00508
6,GAGUCAGGACAAGAAGAUUTT against PHPT1,active: 1.27
7,GUAUGACCUAAAAACCGAATT against MTRR,inactive: -0.381
8,GGACAACAAAUAUCAAGAATT against ING2,inactive: 0.126
9,GGAUGUUUUUCGAAGGAUATT against RHEB,inactive: -0.387
10,GGUGAAACACGGUGACGGATT against HPD,inactive: -0.126
11,CCCGUUUACUUGAGCAAGATT against GUSB,inactive: -0.542
12,GGACUGACUGUAAGUUUAATT against PTRH2,inactive: 0.0467
13,GAAGGGCAGUGACUCGACATT against SPDEF,inactive: -0.607
14,AGCAAAUGGUGUGAGCAAATT against ELOVL4,inactive: 0.166
15,ACUAUGUGAUGCGCAUGAATT against NDUFB7,inactive: -0.379
16,CGGGCAUUGCCACCAAAGATT against DUX5,inactive: -0.295
17,GGCUACCAUGGUUCAGAUATT against ARSI,inactive: 0
18,CACUAUAUCUAUAUCGAAATT against PLD1,inactive: 0.518
19,GGUGAUUCGUGUCAUCUGUTT against SLC4A11,inactive: -0.18
20,GGCCUAUUUCCAAACCGAUTT against RICS,inactive: 0.665
21,GGCUCAUCCUCAAUUCUUATT against ZSCAN18,inactive: 0.125
22,GCUUAAAACUUUUCAAUAATT against CXCR3,inactive: 0.693

row,Sequence,median seed-adjusted z-score
1,AGUCAUGCGACAUUGGUUATT against PGLYRP4,inactive: 0.13
2,CGAGGUCGUUUACAAGUCATT against SLC1A7,inactive: -0.781
3,CUGUGAAUAUGAAAGGAGATT against NOM1,inactive: 0.00828
4,GCUGGAUAAUACAACUGCATT against EEA1,inactive: 0.0278
5,CAAGCUAAAGAAGACCAUATT against ARID3B,inactive: -0.0846
6,GGAAGGGAUUAAAAACCAATT against APOBEC3C,inactive: -0.103
7,AGUCAACAGCUAAAACCUUTT against ICAM1,inactive: 0.345
8,UCUUCUACACCAACCUUUATT against P2RY2,inactive: 0.119
9,GGCCUGAUGUUGAGCAGUUTT against SLC16A9,inactive: 0.125
10,GAUACAAGAUCAAUAUACATT against OXTR,inactive: -0.557
11,GGGAUGGAUUUUCACCGAUTT against CAMK2D,inactive: 0.0676
12,GCAUGUAGAUGGUUGUGCATT against CNOT6L,inactive: -0.0259
13,GAUGCUAACCUGUACGUCATT against ELAVL3,inactive: -0.151
14,UGAUGACACCAAUCUCAAATT against TSSK4,inactive: -0.162
15,GCCUCUUGUUCGAGAAUAATT against HSD11B1L,inactive: -0.00448
16,GCAUCGACAUAGGCGAUGATT against ABCC11,inactive: 0.322
17,CCCAUGAUGUGAAGCCUUUTT against TEAD4,inactive: 0.0908
18,CCAAGAUACUUAGACUGCATT against GAS6,inactive: -0.493
19,CUGGAUCCUUUAUUACGAATT against NF1,inactive: -0.36
20,GCACCUAUGCAGCUCUUCATT against FBLIM1,inactive: 0.0604
21,GAAUUGUCAGAUUUCGCUUTT against MTMR10,inactive: 0.144
22,GGCUUUUCUUCAAUAUAGATT against DCT,inactive: -0.184

# Some of the entries so far, bar-delimited.
row | Sequence | median seed-adjusted z-score
7 | AGUCAACAGCUAAAACCUUTT against ICAM1 | inactive: 0.345
13 | GAUGCUAACCUGUACGUCATT against ELAVL3 | inactive: -0.151

# Further entries.

row,Sequence,median seed-adjusted z-score
1,CCAACUUCACCACAAGGCATT against HOXB1,inactive: -0.0455
2,GGAUAUAGCUGGUGACCCATT against PCDH7,inactive: 0.192
3,GCGUAGACAAUGUUACUAATT against RBM16,inactive: 0.279
4,GUAUAUCAAGCAUUCAAAUTT against SUCLG2,inactive: -0.619
5,CCGUCGCACAAAUCUCGAATT against IDH3G,inactive: -0.426
6,GCAAGAAUCCCUAAAGCAUTT against BAG2,inactive: -0.87
7,GGACACGAUCAACAAAUUATT against NEFL,inactive: 0.305
8,GUACAUAGAGGAUAGUAUUTT against LPAR3,inactive: -0.3
9,GGGUCACACUAUUUCGUGUTT against ARIH1,inactive: -0.443
10,GCUGCUCGACUGAUCCAAATT against MME,inactive: 0.129
11,UCAACAUCAUGUAGACAAATT against AKAP1,inactive: 0.182
12,CCUCUUGUCUAUAAGGGAATT against GNPAT,inactive: 0.111
13,AUAUGCGUGUGGAAGACUATT against NDUFB8,inactive: -0.468
14,GGCAUUUCCGGUAUUAAAATT against HPCAL1,inactive: -0.00535
15,CGAAAUGUGGGACAUAUUUTT against MFSD9,inactive: 0.36
16,CAUGUUAAUUGUUAAGGAUTT against WFDC8,inactive: 0.0427
17,GAGCAGAUCUUUUUAUGCATT against ZNF664,active: 1.08
18,CACUCUCAGUUGUACGUAUTT against PTPRH,inactive: 0.175
19,ACCUUCUUCCCGACCCUCATT against PIM2,inactive: 0.00597
20,CUGCUACGGUAAUAACUCATT against ARSH,inactive: -0.0414
21,GAAGUAAACAUAUCAAGUUTT against PLGLB2,inactive: 0.234
22,CAAGAUUGAGAAUAUCAGATT against UCHL5,inactive: -0.358

# 7 records picked at random from the list so far:
row,Sequence,median seed-adjusted z-score
14,GGCAUUUCCGGUAUUAAAATT against HPCAL1,inactive: -0.00535
13,AUAUGCGUGUGGAAGACUATT against NDUFB8,inactive: -0.468
6,GCAAGAAUCCCUAAAGCAUTT against BAG2,inactive: -0.87
3,GCGUAGACAAUGUUACUAATT against RBM16,inactive: 0.279
21,GAAGUAAACAUAUCAAGUUTT against PLGLB2,inactive: 0.234
9,GGGUCACACUAUUUCGUGUTT against ARIH1,inactive: -0.443
5,CCGUCGCACAAAUCUCGAATT against IDH3G,inactive: -0.426

# The list continues.

row,Sequence,median seed-adjusted z-score
1,UCAAUGAGGUGGUCCUAAATT against TOR3A,inactive: 0.225
2,GUCUCCUACUUUACCUAUATT against PCDHGA10,inactive: 0.0621
3,GUCUAUCAGGUGUUUGAAATT against COQ5,inactive: -0.0292
4,CAAAGUCCCUCAUCAGGAATT against SPRED1,inactive: 0.387
5,GGAUAUUACUGCAAUGUCUTT against ZMAT2,inactive: 0.104
6,GGGACGCGUUCAUAACUGUTT against CTSW,inactive: -0.342
7,GGCAAUAAAUCCUAUGUGATT against DHRS9,inactive: -0.0523
8,CAUCUACCCAAUACUGUUATT against MS4A1,inactive: 0.414
9,CUGGAAACAUUGUAUCGAATT against PPEF2,inactive: 0.354
10,CAGCGGCAAUGAUAUCAUUTT against CTNNA2,inactive: -0.0686
11,GCAGAGCGGGUUAAAAUGATT against DNAJC2,inactive: -0.0357
12,GCCUAAUCAUUAUGAUCUATT against TRAF6,inactive: 0.324
13,CAAUAUUGGAGCGAAUUAATT against AASS,inactive: -0.626
14,UCUGCUAACCUGAAAGUAATT against CARD8,inactive: 0.115
15,CAAGAACGUGUACAAGUUUTT against RPN2,inactive: -0.217
16,GAACCUUUCUAAUCCAGAATT against NKRF,inactive: -0.0368
17,GCUUUGACGGCGACAGUGATT against CCKBR,inactive: 0.314
18,CUACCUUACUUUAACAUUATT against KCNS3,inactive: 0.103
19,GAAGAUCGGCUUGAAAUUATT against EIF3H,inactive: 0.449
20,CCUUUAGUAGAAUCAGUUATT against ZNF791,inactive: 0.219
21,AUACCUGAACAGUCCCUCATT against NOBOX,inactive: -0.426
22,AGUUGUUCAAGUUCCGCAATT against CRTAC1,inactive: 0.113

row,Sequence,median seed-adjusted z-score
1,GAGUAACUCGUGUCCCGAATT against KCNK18,inactive: 0.115
2,CGCAGAUGCCGAUUGCUUUTT against CASP6,inactive: 0.765
3,AGAACAACGUGAAGGCACATT against TNPO2,inactive: 0.0785
4,CAGAUGAGAUUAACACCAUTT against CRP,inactive: -0.212
5,GACUAAAGAUGUAUAAGCATT against PSMB1,inactive: -0.35
6,GGACGGUCAUUGAUUACAATT against P4HB,inactive: -0.0514
7,CAUUCAGCCCAACAAGAAATT against CYB5R1,inactive: 0
8,CUCUGGUAGAAUCCAAUUATT against GIN1,inactive: -0.0585
9,CCCAAGGCCUGCUUAUUCATT against POLR2J2,inactive: 0.375
10,GAAUUUCCUUGUCUCGAAUTT against EPX,inactive: 0.159
11,GGUUGUUUUGGAAACCGAATT against NAT12,inactive: -0.0807
12,UCACAGAAGUUCACGCUGATT against INPPL1,inactive: 0.199
13,GGAGUUAUGUUGGGAUAAATT against TIMM8B,inactive: -0.853
14,CGUCCUCAUCGAGACUUCATT against D2HGDH,inactive: -0.637
15,GGUGACCGGUUACUUGGGATT against FFAR1,inactive: 0.248
16,GAGCAGCUUUGGAUAAUGATT against ZNF226,inactive: 0.437
17,GUACUAACUUGGUUAAGAATT against NAT12,inactive: -0.0807
18,AGGAUGACUUGUUCGCGGATT against RTN4RL2,inactive: -0.168
19,GAAAUGACCUUAUUAGUCATT against RYK,inactive: -0.446

# Source: PubChem BioAssay AID1347426 (Functional Genomics Laboratory (NCATS/FGL), 2020)
